Data reported in doi:10.1101/278911.
Results are given in words; binding and its absence hold for the method and conditions named. Binding seen in cells or lysates may run through a third protein. Some entries that bind do so weakly or less than the wild type.

Sequences of proteins named here, by UniProt entry; tags and fusion partners are left off.
UniProt P54645: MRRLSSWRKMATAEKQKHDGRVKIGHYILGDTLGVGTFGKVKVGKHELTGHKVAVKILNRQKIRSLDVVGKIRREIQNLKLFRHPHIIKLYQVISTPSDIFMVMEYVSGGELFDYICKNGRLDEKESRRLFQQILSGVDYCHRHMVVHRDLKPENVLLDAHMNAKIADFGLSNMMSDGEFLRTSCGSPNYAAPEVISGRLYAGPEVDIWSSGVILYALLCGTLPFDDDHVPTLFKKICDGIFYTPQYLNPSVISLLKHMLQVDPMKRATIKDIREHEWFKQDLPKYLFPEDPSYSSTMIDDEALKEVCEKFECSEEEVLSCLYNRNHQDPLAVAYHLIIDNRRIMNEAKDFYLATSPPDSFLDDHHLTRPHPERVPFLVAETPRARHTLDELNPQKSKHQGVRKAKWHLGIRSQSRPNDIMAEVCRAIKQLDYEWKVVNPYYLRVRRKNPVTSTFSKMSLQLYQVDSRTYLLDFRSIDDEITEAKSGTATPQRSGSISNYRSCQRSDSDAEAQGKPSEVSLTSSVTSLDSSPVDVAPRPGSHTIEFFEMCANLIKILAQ
UniProt Q09137: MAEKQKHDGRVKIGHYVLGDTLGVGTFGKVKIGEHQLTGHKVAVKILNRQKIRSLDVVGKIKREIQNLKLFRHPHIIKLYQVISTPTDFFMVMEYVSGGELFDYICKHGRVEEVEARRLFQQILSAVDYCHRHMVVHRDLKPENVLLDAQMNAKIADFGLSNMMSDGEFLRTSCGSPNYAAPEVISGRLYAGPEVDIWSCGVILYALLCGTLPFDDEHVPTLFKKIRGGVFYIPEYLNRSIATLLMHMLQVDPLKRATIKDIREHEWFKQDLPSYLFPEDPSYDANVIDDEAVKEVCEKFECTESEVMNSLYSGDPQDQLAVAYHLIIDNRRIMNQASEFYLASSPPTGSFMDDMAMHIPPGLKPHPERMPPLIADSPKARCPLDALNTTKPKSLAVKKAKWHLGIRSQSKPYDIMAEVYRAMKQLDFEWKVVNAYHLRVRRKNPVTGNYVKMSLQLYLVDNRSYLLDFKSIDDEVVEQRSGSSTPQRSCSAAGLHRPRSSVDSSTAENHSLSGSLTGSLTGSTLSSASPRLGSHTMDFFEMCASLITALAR

Biological target: T1, TRPC6 channel (rat (endogenous in cultured rat podocytes)) (UniProt Q99N78)
T1 sequence: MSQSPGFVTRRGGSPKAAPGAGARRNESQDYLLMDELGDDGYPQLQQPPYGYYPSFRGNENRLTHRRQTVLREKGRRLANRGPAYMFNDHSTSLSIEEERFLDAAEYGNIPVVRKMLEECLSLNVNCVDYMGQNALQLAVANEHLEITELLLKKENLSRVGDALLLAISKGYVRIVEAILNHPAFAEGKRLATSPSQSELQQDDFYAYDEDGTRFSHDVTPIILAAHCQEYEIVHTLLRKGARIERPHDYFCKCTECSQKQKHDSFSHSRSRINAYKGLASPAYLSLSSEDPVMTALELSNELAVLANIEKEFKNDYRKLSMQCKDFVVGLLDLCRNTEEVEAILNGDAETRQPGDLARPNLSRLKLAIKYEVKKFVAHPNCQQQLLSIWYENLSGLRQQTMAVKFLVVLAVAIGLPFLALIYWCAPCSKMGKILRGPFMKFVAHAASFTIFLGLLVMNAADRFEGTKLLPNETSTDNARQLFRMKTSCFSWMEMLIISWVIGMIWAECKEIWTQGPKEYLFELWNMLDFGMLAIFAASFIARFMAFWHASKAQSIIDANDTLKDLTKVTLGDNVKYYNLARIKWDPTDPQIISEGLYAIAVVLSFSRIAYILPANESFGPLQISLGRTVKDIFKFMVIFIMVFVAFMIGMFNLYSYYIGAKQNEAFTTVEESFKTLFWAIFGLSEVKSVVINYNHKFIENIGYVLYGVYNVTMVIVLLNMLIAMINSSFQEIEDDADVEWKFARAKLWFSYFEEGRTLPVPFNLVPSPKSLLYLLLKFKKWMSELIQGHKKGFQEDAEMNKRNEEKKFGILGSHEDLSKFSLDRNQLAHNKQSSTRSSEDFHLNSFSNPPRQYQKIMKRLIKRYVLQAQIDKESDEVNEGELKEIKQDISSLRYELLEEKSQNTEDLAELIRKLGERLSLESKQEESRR
Assay: co-IP

| binding | Substance |
| --- | --- |
| binds | AMP-activated protein kinase α1 subunit (from UniProt P54645 1-559) |
| binds | AMP-activated protein kinase α2 subunit (from UniProt Q09137 1-552) |
